PubChem BioAssay AID1259254, NCATS | 2017

Purpose: 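Genome-wide screen for genes that prevent DNA re-replication in cancer cells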 (primary screen)
System: human HCT116 colorectal cancer cells
Knock-down reagent: single siRNA against human genes
Timing: 3 days
Detection: 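Imaged Hoechst DNA stain sorts each cell into a cycle phase by DNA amount; per plate, G2 fraction set to 0% for non-targeting and 100% for GMNN siRNA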
Scale: G2 robust z-score: higher = more G2 cells, more excess DNA replication
Call rule: 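Active siRNAs have a G2 robust z of 5 or more median absolute deviations over the median, which in these data means about 38% or higher of GMNN control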
This is a random part of about 59,000 reagents. Of all reagents, about 1,550 (2.6%) were called active. 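G2 share is only a proxy for re-replication; each gene was hit by three separate siRNAs, and active genes were retested.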 Unmarked entries are inactive. The numbers tell different reagents against one gene apart. Further read-outs or replicates are left out here. No sequences are given here. The record does not give: the amount of reagent.

SIAH3 #1
- G2 robust z-score: 1.61

SIAH3 #2
- G2 robust z-score: 1.74

SIAH3 #3
- G2 robust z-score: -0.873

ZNF662 #1
- G2 robust z-score: -0.626

ZNF662 #2
- G2 robust z-score: -0.0456

ZNF662 #3
- G2 robust z-score: -0.634

Continued; the last 2 above are carried over.
ZNF662 #2
- G2 robust z-score: -0.0456

ZNF662 #3
- G2 robust z-score: -0.634

DAGLB #1
- G2 robust z-score: -0.0538

DAGLB #2
- G2 robust z-score: 1.57

DAGLB #3
- G2 robust z-score: 10.5 (active)

GBP1 #1
- G2 robust z-score: 2.08

GBP1 #2
- G2 robust z-score: -0.32

GBP1 #3
- G2 robust z-score: -1.13
